Laboratory results reported in PMC11914254.
No constants are given. Whether binding was seen depends on the method and setting. Binding seen in cells or lysates may run through a third protein. Where a sequence is shown, tags or fusion partners need not be part of it.

Target: T1, GFP-TBK1 (UniProt Q9UHD2)
T1 sequence: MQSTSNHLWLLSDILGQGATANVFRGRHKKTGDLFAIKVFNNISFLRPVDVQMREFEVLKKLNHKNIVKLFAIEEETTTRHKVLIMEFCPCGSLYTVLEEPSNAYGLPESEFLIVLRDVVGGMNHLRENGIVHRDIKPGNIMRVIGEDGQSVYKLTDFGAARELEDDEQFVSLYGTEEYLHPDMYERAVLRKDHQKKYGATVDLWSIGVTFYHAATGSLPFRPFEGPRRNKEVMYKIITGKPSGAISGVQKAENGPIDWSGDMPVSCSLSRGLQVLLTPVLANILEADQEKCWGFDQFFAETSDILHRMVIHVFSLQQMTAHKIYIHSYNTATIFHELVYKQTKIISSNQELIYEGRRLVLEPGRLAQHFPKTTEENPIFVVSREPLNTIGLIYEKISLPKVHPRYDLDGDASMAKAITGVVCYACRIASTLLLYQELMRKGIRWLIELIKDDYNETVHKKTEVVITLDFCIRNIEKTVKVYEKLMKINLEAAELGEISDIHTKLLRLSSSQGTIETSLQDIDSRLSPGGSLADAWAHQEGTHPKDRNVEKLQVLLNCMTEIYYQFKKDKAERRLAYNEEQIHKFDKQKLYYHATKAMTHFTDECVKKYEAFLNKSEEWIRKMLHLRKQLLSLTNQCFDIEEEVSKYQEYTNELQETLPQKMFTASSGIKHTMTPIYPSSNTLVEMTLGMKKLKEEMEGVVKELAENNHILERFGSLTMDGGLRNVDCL
Assay: co-IP; HEK293T cells expressing GFP-TBK1 together with TBC1D23 WT-mCherry or 3K-mCherry; immunoprecipitation with GFP beads, immunoblot

- binding: no binding
B1: TBC1D23 3K-mCherry (protein, UniProt Q9NUY8-2 1-684)
chain: MAEGEDVPPLPTSSGDGWEKDLEEALEAGGCDLETLRNIIQGRPLPADLRAKVWKIALNVAGKGDSLASWDGILDLPEQNTIHKDCLQFIDQLSVPEEKAAELLLDIESVITFYCKSRNIKYSTSLSWIHLLKPLVHLQLPRSDLYNCFYAIMNKYIPRDCSQKGRPFHLFRLLIQYHEPELCSYLDTKKITPDSYALNWLGSLFACYCSTEVTQAIWDGYLQQADPFFIYFLMLIILVNAKEVILTQESDSKEEVIKFLENTPSSLNIEDIEDLFSLAQYYCSKTPASFRKDNHHLFGSTLLGIKDDDADLSQALCLAISVSEILQANQLQGEGVRFFVVDCRPAEQYNAGHLSTAFHLDSDLMLQNPSEFAQSVKSLLEAQKQSIESGSIAGGEHLCFMGSGREEEDMYMNMVLAHFLQKNKEYVSIASGGFMALQQHLADINVDGPENGYGHWIASTSGSRSSINSVDGESPNGSSDRGMKSLVNKMTVALKTKSVNVREKVISFIENTSTPVDRHVSSSDRVGKPYRGVKPVFSIGDEEEYDTDEIDSSSMSDDDRKEVVNIQTWINKPDVKHHFPCKEVKESGHMFPSHLLVTATHMYCLREIVSRKGLAYIQSRQALNSVVKITSEEEHPELITFKYGNSSASGIEILAIERYLIPNAGDATKAIKQQIMKVLDALES
